The record followed here is the supplement of paper PMC6924143.

The series relates to RAW-Blue (mouse TLR9 reporter, RAW 264.7). Description: mTLR9 reporter activity (SEAP, QUANTI-Blue absorbance) (OD650); higher = stronger mouse TLR9 activation. The conditions noted are these: 3 h. How it is done: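 Synthetic single-stranded 24-mer CpG ODNs were diluted in saline and added to mouse RAW-Blue cells (RAW 264.7 with an NF-kB/AP-1-inducible SEAP reporter; endogenous mouse TLR9), about 1e5 cells/well. After 3 h, SEAP in the supernatant was read with QUANTI-Blue as absorbance at 650 nm. ODN concentration and backbone chemistry are not stated; activity of 0.4 or above is the paper's high-activity class.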

The data scatter; read single values as rough.

Regarding TCGCTCGGGCGTCGCGGTTCCCTT [mODN76], the mTLR9 reporter activity is 0.46. For TCGCTCGTCGCGCGCGTTGCTATT [ODN190] the value was 0.146; for TCGCTCGTTGCGCTGTGTTCGATT [ODN136], 0.698; for TCGCTCTCGTTGTGTTCGCGTAGT [ODN165], 0.251. TCGCTGCGCGTGCGTTTGCTTGCT [ODN155] registered a mTLR9 reporter activity of 0.278. Sequence TCGCTGCGCGTGTGCTTTGTTCGT [ODN698] gave a mTLR9 reporter activity of 0.181. With TCGCTGCGTCTCGCGTCGTTGTCT [ODN540], the mTLR9 reporter activity was found to be 0.419. For TCGCTGCGTTCGTCGTGTTGATGT [ODN719] the value was 1.14; for TCGCTGCTCGTGCGTCGTTTGTCT [ODN750], 0.515; for TCGCTGCTGACGTCTGCGTCGTTT [ODN773], 0.303. The value for TCGCTGCTTGGCATTGCCGCGACG [mODN-020] was 0.37; that for TCGCTGTCGCTATGCGCTCGCTGT [ODN145] was 0.384. In turn, TCGCTTACGGTTTGCGAGCCGCCA [mODN-005] had a mTLR9 reporter activity of 0.44. For TCGCTTCCTTTCGCCGGGCGATGC [mODN72] the value was 0.55; for TCGCTTCGCGCGTTGTGTGTTCTT [ODN246], 0.199; for TCGCTTCGCGTTTGCGTACGTGCT [ODN761], 0.327. Take TCGCTTGACCGTTGGGCGCGGTCC [mODN75]: the mTLR9 reporter activity was 0.64. Regarding TCGCTTGCGCGTACGCGCTTCGCT [ODN116], the mTLR9 reporter activity stood at 0.196.

TCGGCCCCGTCAGCGTTACGCTTG [mODN049]: the mTLR9 reporter activity worked out at 0.9. In the case of TCGGCCGTTCGCATTACGCTGGCC [mODN037], the mTLR9 reporter activity was 0.89. For the sequence TCGGCCGTTCTACGGTCCCTTCGG [mODN-009], the mTLR9 reporter activity stood at 0.17. TCGGCCTTTCTCGGCGCTTCGCGA [mODN067] displayed a mTLR9 reporter activity of 0.51.

As for TCGGCGCTTCACCCGTGCGTTGAC [mODN046], the mTLR9 reporter activity amounted to 1. TCGGCGTTACCGCCCGGGTTTACA [mODN85] registered a mTLR9 reporter activity of 0.6. For TCGGCTCCGTCGGCCTTCTTGCGG [mODN73], the mTLR9 reporter activity came to 0.46. Take TCGGCTCGCTTACCGCGGCATTGG [mODN048]: the mTLR9 reporter activity turned out to be 0.62. The value for TCGGGCCGACGTTCAGTTCGTCCA [mODN89] was 0.82. The sequence TCGGGCCGTCAGCGTTCTCATTCG [mODN047] showed a mTLR9 reporter activity of 1.03. Take TCGGGCGACTTTACGCACCGCGTT [mODN74]: the mTLR9 reporter activity worked out at 0.63.

TCGGGCTTCGTACGGTCCGACCTT [mODN-028] came in with a mTLR9 reporter activity of 0.64.

Consider TCGGGGTTGCCTGCCGCGCTTGCG [mODN031], for which the mTLR9 reporter activity was 0.29. For TCGGTCCGTTGTTCGCAGCACGCT [mODN-025] the value was 0.43. On to TCGGTCGACCTTGCGCGGCGTTCA [mODN063], for which the mTLR9 reporter activity was 0.76. TCGGTTCCGCGCCGATGTTAGGCC [mODN-013] gave a mTLR9 reporter activity of 0.15.

TCGGTTTGACCTTTCGCACGGCCG [mODN035] had a mTLR9 reporter activity of 0.33.

As to TCGTAAGCGTGTCGACGTTGACTT [ODN095], the mTLR9 reporter activity stood at 0.36. The value for TCGTCCTTCGACGAGCTTCGGCAG [mODN-030] was 0.35; that for TCGTCGCGTGCTGCTGTTCGTACT [ODN270] was 0.243. TCGTCGCGTTCGTGTTTGTCGCTT [ODN737]: the mTLR9 reporter activity was determined as 1.12. TCGTCTCGCGTGCGATGCGTCTGT [ODN146] registered a mTLR9 reporter activity of 0.348.

The sequence TCGTCTCGCGTGCGCTATTGTGTT [ODN117] yielded a mTLR9 reporter activity of 0.315. TCGTCTGCGCGTGCGCTCTAGTCT [ODN130] gave a mTLR9 reporter activity of 0.421. Sequence TCGTCTTCGTGCGACGCGTGCTTT [ODN200] yielded a mTLR9 reporter activity of 0.12. TCGTCTTGATCAGCGGCGCGCCTT [mODN79] came in with a mTLR9 reporter activity of 0.49.

Regarding TCGTGAGTTAGTCGAGCGTCGTTT [ODN101], the mTLR9 reporter activity was 0.12.

In turn, TCGTGATCGCTCGTTTTGTGCGCT [ODN142] gave a mTLR9 reporter activity of 0.617. TCGTGCGATCGCGCGTGCTTTGTT [ODN172] registered a mTLR9 reporter activity of 0.146. The value for TCGTGCGCGAGTCTGTCTGTTCGT [ODN197] was 0.128; that for TCGTGCGCGCGCTGTCTTGTTGCT [ODN152] was 0.306.

The sequence TCGTGCGCGCGTCGCATTGTTCTT [ODN176] returned a mTLR9 reporter activity of 0.134.

As to TCGTGCGTCGCGTCACTGTCTTGT [ODN118], the mTLR9 reporter activity was 0.152. TCGTGCGTCGCTCTGTTCGTGCTT [ODN510] registered a mTLR9 reporter activity of 0.72.

With TCGTGCGTCGTGTCGCGTTGTTCT [ODN632], the mTLR9 reporter activity was found to be 0.545. The value for TCGTGCGTCTGCGAGCTCGTTTCT [ODN137] was 0.262; that for TCGTGCGTGAGCTTTCGCGTTGTT [ODN217] was 0.203; that for TCGTGCGTGTGATTCGCGCTTTCT [ODN535] was 0.285. As for TCGTGCGTTTCTGATCGCGCTTGT [ODN201], the mTLR9 reporter activity came out at 0.258. For TCGTGCGTTTTTGTTTTGTCGCGT [ODN055.2], the mTLR9 reporter activity came to 0.948. For TCGTGCTTACGTTACGACCCCGGG [mODN99] the value was 0.77; for TCGTGCTTTAGCGTCGTGTCGTCT [ODN253], 0.156; for TCGTGTCGCGTGCGTGAGTGTTCT [ODN141], 0.309. The sequence TCGTGTCGCGTTCGTTCTTGTAGT [ODN168] had a mTLR9 reporter activity of 0.287. With TCGTGTCGCTTCGTTGTTATGCGT [ODN607], the mTLR9 reporter activity came out at 0.757.

As for TCGTGTGTCGCGTAGTGTCGTGCT [ODN643], the mTLR9 reporter activity stood at 0.464. TCGTGTTCGTTGTTCTGCGATCGT [ODN160] returned a mTLR9 reporter activity of 0.202. With TCGTGTTCTCGTCGTTGTTGACGT [ODN855], the mTLR9 reporter activity worked out at 0.463.

The sequence TCGTGTTTTCGCGAGCGCAGTTTT [ODN003] returned a mTLR9 reporter activity of 0.42. For TCGTTAGCGTGTCGTTTTGTTCGT [ODN148] the value was 0.568; for TCGTTATCTTGGCGGCCGGCCCGT [mODN88], 0.47. TCGTTATGCGCGCGTTCGTCTCGT [ODN701] yielded a mTLR9 reporter activity of 0.764. TCGTTCCCGACGGAGCTTCGGCTG [mODN87]: the mTLR9 reporter activity came to 0.58. For TCGTTCCCGGACGGAGGTCTTCGC [mODN-002] the value was 0.15.

On to TCGTTCGCGCGCTCGTCTTTGTGT [ODN167], for which the mTLR9 reporter activity was determined as 0.183. TCGTTCGCGCTCGTCGTGTTTGAT [ODN213] registered a mTLR9 reporter activity of 0.2.

For the sequence TCGTTCGTCGCTGCGTCGTGTTCT [ODN202], the mTLR9 reporter activity amounted to 0.263. On to TCGTTCGTGCGTCTTGCGACTTGT [ODN132], for which the mTLR9 reporter activity came to 0.52. TCGTTCGTGCTCTAGCGCGTTGTT [ODN163]: the mTLR9 reporter activity amounted to 0.159. In the case of TCGTTCGTTGTGCTTGACGCGTGT [ODN115], the mTLR9 reporter activity came out at 0.53. The sequence TCGTTCGTTTGCGTCGTGTCATGT [ODN228] registered a mTLR9 reporter activity of 0.296. The value for TCGTTCTCGCGCGTGCGTACTGCT [ODN126] was 0.153; that for TCGTTCTCTGCGCGCGCTTTGCGT [ODN671] was 0.423; that for TCGTTCTTGCGACGCTCGCGTTGT [ODN826] was 0.521.

As for TCGTTGATGTCGTCGTCGTGCTCT [ODN733], the mTLR9 reporter activity is 0.301. The value for TCGTTGCGATCGTCTCGCTTGTGT [ODN772] was 0.822. In turn, TCGTTGCGCATCGCGCTGTTGTCT [ODN121] yielded a mTLR9 reporter activity of 0.145.

The sequence TCGTTGCGCCGGATCCGCGATTCA [mODN040] came in with a mTLR9 reporter activity of 0.54. As for TCGTTGCGCGCTTCAGTGCGTCGT [ODN814], the mTLR9 reporter activity is 0.366. With TCGTTGCGCTGCTCGTCGTGTGCT [ODN156], the mTLR9 reporter activity stood at 0.523. For TCGTTGCGCTTACGCGCTGTCGCT [ODN831] the value was 0.5. In turn, TCGTTGCGCTTGCGTGTCGTTTAT [ODN196] yielded a mTLR9 reporter activity of 0.116. Sequence TCGTTGCGGGGCTTCGTCCGCGCG [mODN92] returned a mTLR9 reporter activity of 0.5.

TCGTTGCTCGTTTGCGTCGTTGAT [ODN614] displayed a mTLR9 reporter activity of 0.702. Sequence TCGTTGGATCGCCCGATCTTGCGC [mODN060] yielded a mTLR9 reporter activity of 0.49. For TCGTTGTCGTGCGCGCGTGATTGT [ODN128], the mTLR9 reporter activity worked out at 0.413. In the case of TCGTTTATCGTGTTCGCGCGTCGT [ODN818], the mTLR9 reporter activity is 0.332. The value for TCGTTTCGATGCGTTCGCGCGTTT [ODN563] was 0.653. As for TCGTTTCGCGTGTTCGACGTTCGT [ODN111], the mTLR9 reporter activity is 0.306. For TCGTTTCTTCGCTGGACCCCGGCG [mODN038] the value was 0.53; for TCGTTTGCGCGTCGTGCTACTGCT [ODN692], 0.465. The value for TCGTTTGTTCGTCTTGCGTGTCGT [ODN570] was 0.241; that for TCGTTTTCGCGTACGCGCGTGTCT [ODN159] was 0.307; that for TCGTTTTGTGCGTCGAGCGTTGTT [ODN664] was 0.352.

Sequence TCTACGCGTCTCGCGCGTGTTGCT [ODN181] gave a mTLR9 reporter activity of 0.082.
